Data taken from paper PMC8379249.
Results are given in words; binding and its absence hold for the method and conditions named. Binding seen in cells or lysates may run through a third protein. Some entries that bind do so weakly or less than the wild type.

By UniProt entry, the sequences of proteins in these tests, tags left out.
UniProt P06211: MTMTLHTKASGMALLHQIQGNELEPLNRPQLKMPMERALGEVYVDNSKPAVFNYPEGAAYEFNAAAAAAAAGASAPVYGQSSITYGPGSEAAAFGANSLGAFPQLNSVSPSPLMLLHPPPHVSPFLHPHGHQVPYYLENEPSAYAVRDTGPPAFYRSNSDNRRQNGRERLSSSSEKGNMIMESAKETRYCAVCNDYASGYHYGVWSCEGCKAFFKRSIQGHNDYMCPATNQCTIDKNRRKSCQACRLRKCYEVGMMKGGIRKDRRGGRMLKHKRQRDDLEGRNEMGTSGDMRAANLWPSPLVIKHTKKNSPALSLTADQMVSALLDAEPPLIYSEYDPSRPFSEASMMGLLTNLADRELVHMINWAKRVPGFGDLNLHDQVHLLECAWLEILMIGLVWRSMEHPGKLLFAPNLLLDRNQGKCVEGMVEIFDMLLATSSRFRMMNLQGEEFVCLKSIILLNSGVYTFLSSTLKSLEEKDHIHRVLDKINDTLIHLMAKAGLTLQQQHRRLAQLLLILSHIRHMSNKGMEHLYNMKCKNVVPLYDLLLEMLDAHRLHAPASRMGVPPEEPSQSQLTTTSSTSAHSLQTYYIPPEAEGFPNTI

Biological target: T1, Retinoid X receptor α (RXRα), endogenous in rat primary chondrocytes (rat (endogenous in primary chondrocytes)) (UniProt Q05343)
T1 sequence: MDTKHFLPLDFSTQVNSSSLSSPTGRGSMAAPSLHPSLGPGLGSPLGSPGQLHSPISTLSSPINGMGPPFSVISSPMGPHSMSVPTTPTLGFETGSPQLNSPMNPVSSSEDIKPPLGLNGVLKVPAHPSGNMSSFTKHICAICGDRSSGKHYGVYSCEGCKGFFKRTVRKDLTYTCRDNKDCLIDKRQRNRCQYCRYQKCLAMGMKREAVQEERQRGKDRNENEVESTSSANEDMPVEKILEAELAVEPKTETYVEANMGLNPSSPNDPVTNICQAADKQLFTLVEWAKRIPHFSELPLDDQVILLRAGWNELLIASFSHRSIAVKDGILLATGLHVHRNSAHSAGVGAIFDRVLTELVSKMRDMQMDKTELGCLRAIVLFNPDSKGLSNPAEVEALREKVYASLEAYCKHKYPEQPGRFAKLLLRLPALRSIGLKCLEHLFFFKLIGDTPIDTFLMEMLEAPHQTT
Test: co-IP; primarily cultured rat chondrocytes, endogenous proteins, treated with K-80003 (1 μM, 5 μM, 25 μM); co-IP using anti-RXRα or anti-ERα antibody

Q: For “Estrogen receptor α (ERα), endogenous in rat primary chondrocytes (from UniProt P06211 1-600)”, which binding is on record?
A: binds
